PubChem BioAssay AID1347076 (National Center for Advancing Translational Sciences (NCATS), 2019)
The whole screen tested about 400,000 compounds, of which about 13,000 (3.2%) were called active. The inconclusive results got no clear call from the source; some entries with a clear call stand among them for comparison. Calls come from the whole dose curve; as a rule, active = well fitted cell-killing curve with a large enough effect; inconclusive = small, poorly fitted or top-dose-only effect, or effect the other way; inactive = flat fitted curve, though single readings scatter. A potency beside an inconclusive call is a rough fit, not a confirmed value.

experiment: qHTS assay for MDR1-selective chemotherapeutics: Primary screen using the drug-selected MDR subline cells KB-V1; details: KB-V1 MDR cells viability, CellTiter-Glo, 72 h; activity change, negative = cytotoxicity: at 46.1 µM (top of the series); note: nearly all actives have a fitted effect of over 60% in size
How it was run: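 KB-V1, DMEM (no phenol red) + 10% FBS; cpd pin-transferred, titration series; 72 h, 37 degrees C; CellTiter-Glo, luminescence. Data normalized, curve-fit.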
% is set by controls: 0 for no effect and ±100 for the full control effect; potency is the fitted concentration of half-maximal effect.

Row | SMILES | Potency | activity change, negative = cytotoxicity
1 | C=CCSc1nccc(-c2nn(-c3ccc(C)cc3)ccc2=O)n1 | active: 3.66 µM | –
2 | Fc1ccccc1CNCCC(Cc1ccccc1)c1ccc2c(c1)OCO2 (stereo not given) | inconclusive: 29.1 µM [cytotoxic, single point] | –
3 | CCc1nn(CC(=O)NCCCc2ccccc2)c(=O)c2cc3ccccc3n12 | – | inactive: 5.75%
4 | COc1ccccc1NS(=O)(=O)c1cc(NC(=O)C(C)C)ccc1N1CCCCC1 | inconclusive: 8.2 µM [cytotoxic, partial curve] | –
5 | CCC(C)NCCCCOc1ccc(C)cc1[N+](=O)[O-] (stereo not given) | inconclusive: 7.31 µM [cytotoxic, partial curve] | –
6 | Cc1ccc(Cn2c(=O)c3cccnc3n(CC(=O)Nc3cc(Cl)ccc3C)c2=O)cc1 | – | inactive: 19.4%
7 | CCn1nc(NC(C)=O)c2cc3cccc(C)c3nc21 | inconclusive: 32.6 µM [rising, single point] | –
8 | CC1(C)CC(NC(=S)Nc2ccc(S(N)(=O)=O)cc2)CC(C)(C)N1 | inconclusive: 16.4 µM [rising, partial curve] | –
9 | OC(c1ccc(F)cc1)(C1CCCCC1)C(CN1CCOCC1)c1ccccc1 (stereo not given) | – | inactive: -25%
10 | CCOC(=O)[C@]12CCCC=C1N(Cc1ccccc1)C(=O)[C@H](CC(=O)NCc1ccc(OC)c(OC)c1)C2 | – | inactive: -19.9%
11 | CC(=O)c1ccc(OCCCC(=O)Nc2ccc3c(c2)OCCO3)cc1 | – | inactive: 0%
12 | NS(=O)(=O)c1ccc(N/N=C/c2ccccc2Br)cc1 | – | inactive: -10.4%
13 | COc1cccc(C2/C(=C(/O)c3ccc4c(c3)CC(C)O4)C(=O)C(=O)N2CCCn2ccnc2)c1 (stereo not given) | inconclusive: 29.1 µM [rising, single point] | –
14 | Cc1ccc(/C=C2/Sc3ccccc3N(CC(=O)NCC3CCCO3)C2=O)cc1 (stereo not given) | – | inactive: 0%
15 | Cc1cc(C)c(OCC(=O)Nc2ccccn2)c([N+](=O)[O-])c1 | inconclusive: 14.6 µM [cytotoxic, single point] | –
16 | CCOC(=O)c1c(C)oc2c1c(C=NC1CCS(=O)(=O)C1)c(O)c1ccccc12 (stereo not given) | inconclusive: 20.6 µM [cytotoxic, single point] | –
17 | CCc1ccc(CNC(=O)c2cnc3c(C)cccn3c2=O)cc1 | – | inactive: 12.3%
18 | CCCN(C(=O)Nc1cn(CC(C)C)c(=O)c2ccccc12)c1ccc(F)cc1 | inconclusive: 20.6 µM [cytotoxic, partial curve, poor fit] | –
19 | CC(OC(=O)c1cc(Br)ccc1O)C(=O)Nc1ccc(S(=O)(=O)N2CCCC2)cc1 (stereo not given) | active: 23.1 µM | –
20 | Cc1ccc2cc(/C=N/NC(=O)[C@H](C)NC(=O)OC(C)(C)C)c(Cl)nc2c1 | inconclusive: 5.8 µM [cytotoxic, partial curve, poor fit] | –
